According to the supplement of paper PMC5949888:
Most values lie at the floor of the assay. Slopes are relative: functional sequences can read slightly below zero.

test system: Saccharomyces cerevisiae PS128 hsf1 delta, HSF1(1-493) fusion; assay: growth estimate (transactivation domain function in HSF1 fusion, heat-shock survival) (a.u. (slope of normalised read count over time)); higher = stronger growth at 37°C, i.e. more transactivation activity; conditions: library: random library
Procedure: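 Random 60-nt DNA library encoding peptides of up to 20 aa, fused to the C-terminus of yeast HSF1 residues 1-493 (C-terminal TAD deleted) and expressed from the native HSF1 promoter on a CEN plasmid in hsf1-deleted S. cerevisiae PS128. Cells were selected at 37°C on -trp 5-FOA plates for 0, 2, 4, 6 and 8 days and amplicons were sequenced. Growth estimate is the slope of a robust linear fit of total-sum-normalised read counts (normalised to the first time point) over time, using at least 2 replicates. Sequences are classed functional (TAD activity) above a threshold of -0.13, set from stop-codon control sequences.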

Substance | growth estimate
AILSSRSVRLCSSVERGIIT | < -0.25
AILTLSVAL | < -0.25
AINKMT | < -0.25
AINRLPKLKPSGVVYKFWRC | < -0.25
AIP | < -0.25
AIPRKQILGVYLRTYPLRER | < -0.25
AIPSQCRYKVRAKAAGSC | < -0.25
AIRDQGQKTYAVSSWHYIEW | < -0.25
AIREGRNMRRQIRLVGGYIG | < -0.25
AIRGPRTKVLEFQR | < -0.25
AIRGRGPGSVKLLRGRRTGN | -0.233
AISVVP | < -0.25
AISVYPITNLSFSRTVECSG | < -0.25
AIVCPGA | -0.231
AIVIVS | < -0.25
AIVLAERTPVIADTNFVSPT | < -0.25
AIVTVEATACASCILVQALL | < -0.25
AKAVKDALLT | < -0.25
AKCFAWTSYI | < -0.25
AKFGRRMARLVPPLTMLLNG | < -0.25
AKG | < -0.25
AKMQGWNVSLYRTRREPDNE | < -0.25
AKPDYVL | < -0.25
AKPLGAALGTCTPGSRVAPS | < -0.25

Substance | growth estimate
AKRDRMGDESLVTLMLTCNV | < -0.25
AKVSAACVSLSVNCHATTPG | < -0.25
AKVSMSVEGCSACETAGLSC | < -0.25
AKYYPQGTGDDRHCNYG | < -0.25
ALADHLVPQSKAPRTTTGNL | < -0.25
ALASACLVAQGGACRGGIDV | < -0.25
ALAVSGIVLAKLGVNAS | < -0.25
ALCLVMLNEHRTWSDGQGAE | < -0.25
ALCSLRTRSMKTVRREQFFN | < -0.25
ALDTSDRFGRKESGLRKRAN | < -0.25
ALEEG | < -0.25
ALEICMNKHTGY | < -0.25
ALFTSLQAETNLCRTKLTPL | < -0.25
ALGEPSTCRVVAAYFDSCSS | < -0.25
ALGGPIS | < -0.25
ALGLKGREITFSFFAVSLLT | < -0.25
ALGRDVRTL | < -0.25
ALGSDAHRGSCPIH | < -0.25
ALGSTLFSVKQGISLRNGDS | < -0.25
ALGTAEVGAPPSLRTDPPCC | < -0.25
ALHGLLTGSNCRSRTEQ | < -0.25
ALHHGGSQKWRHEGTDGSFP | < -0.25
ALICAPDI | < -0.25
ALLLPRNLAGECGVKTQAAR | < -0.25

Substance | growth estimate
ALLSNSKDFVGKSVASAGAE | < -0.25
ALLVML | < -0.25
ALMCMREKTVDFPFVCPVDK | < -0.25
ALNGHRSGEYNPRGNSHSRL | < -0.25
ALNLDVLVKRLSYKRVFWAL | < -0.25
ALNTTPL | < -0.25
ALPMIPNTKFVVERG | < -0.25
ALPQIGQGPLTAARLKVMEE | < -0.25
ALRCLKCLRDSPAGPYRFVF | < -0.25
ALRGMGDKQSRSPGHQPVLS | < -0.25
ALRLHCGGEPGPRRGEMHSE | < -0.25
ALRRVKCHRA | < -0.25
ALRSMRVNGGRPFWSDRAEH | < -0.25
ALS | < -0.25
ALSDQVGTSSLCRGCVALIP | < -0.25
ALSFFSKRGSRQY | < -0.25
ALSPQTMLREDYIAHYINHT | < -0.25
ALSRIIGSGGKMRE | < -0.25
ALSRYNRRGSSAVTQSGFVG | -0.246
ALSYALHPVGR | < -0.25
ALSYVYSLLAY | < -0.25
ALTHWSRVRLSE | < -0.25
ALVDGRVE | -0.2
ALVTRASLGQRPNSFSAYAT | < -0.25

Individual results from the list.
growth estimate, ALS reads < -0.25
growth estimate, ALNTTPL reads < -0.25
growth estimate, ALVTRASLGQRPNSFSAYAT reads < -0.25
growth estimate, ALLVML reads < -0.25
growth estimate, ALSRIIGSGGKMRE reads < -0.25

Next part

Substance | growth estimate
ALVVSGRWVLRPAW | < -0.25
ALYLSNTQVAPPIRTWTALV | < -0.25
AMAGTTRINNNSYQRYMDES | -0.201
AMAKSISESAV | < -0.25
AMAVHVGVGYTSCMETINDL | < -0.25
AMDMYVAWL | < -0.25
AMDPLIDAARV | < -0.25
AMERAARPLFASSTAIGESP | < -0.25
AMIVESAGPGRGSSANPRRG | < -0.25
AML | < -0.253
AMLFEFAGVGYLEAQIGMAP | < -0.25
AMLLRHGPWPCRLG | < -0.25
AMLMVA | -0.205
AMMVSCRRARTHVRNLESPM | < -0.25
AMNRLQGLVWCPLSVSSHNK | < -0.25
AMRCVLPFDSRTMTYWNVRL | < -0.25
AMRGVSTAVNESSVYAEIG | < -0.25
AMSKSALVETADRVVFKNTR | < -0.25
AMSSYVGASCHAFLVRGSQA | < -0.25
AMSTINGRSSLKGARGPSQS | < -0.25
ANCVNYMLQGQVRTLLRV | < -0.25
ANFLVPKLSASVSTGAASAV | < -0.25
ANGGEIDYCIIPNAAPELWI | < -0.25
ANGKWRSKWARVPDVQLLCR | < -0.25

Substance | growth estimate
ANGRPTGALARVRRDCSQLG | < -0.25
ANISQGIGGNAIPLQHQLEL | < -0.25
ANLAPRSQRTVIKDNEPFAA | < -0.25
ANLELRFIRRLVMGEPRF | < -0.25
ANLTAVAAFNSVPTEWLKLP | < -0.25
ANNRGHQKRLGVRPSC | < -0.25
ANPGKYTDRFKRA | < -0.25
ANQGGLYPVRPVRR | < -0.25
ANQSSPTAWSICGVRSPRLR | < -0.25
ANRHISLSRSRYLPLRMKVV | < -0.25
ANRNRILEGGQHRAHASLGS | < -0.25
ANSLKQLTHCLVGTAH | < -0.25
ANSR | < -0.25
ANVGYSWGEAGVTVG | < -0.25
ANYPLLRLSLNH | < -0.25
APELRYAVSGQGERGVLAC | < -0.25
APFCPPAPT | -0.243
APGHFQIVPGSSGSLQIGIY | < -0.25
APHSEGNSLLAY | < -0.25
APIGGILWLAGRICLGCAGL | < -0.25
APIILRRQASLVLSGAQVSS | < -0.25
APIVVCPSNGCYISDFRIPR | < -0.25
APLASAILARCGRPTSAGLT | < -0.25
APLRIEWVLHCVVIRPEGEN | < -0.25

Substance | growth estimate
APLSAPAGCGLRQTLNGRTV | < -0.25
APLSQFGTTLLAIALNVTIY | < -0.25
APMLPHGRNIVVCGSWLGRA | < -0.25
APNLSWYDVCGITRPNRETD | < -0.25
APPLLRNVLHRYTDPEARGG | < -0.25
APPPLGTLTAETKRKTMEFR | < -0.25
APPVRSQAIPGVHAKAQWQN | < -0.25
APREPSRGLIIDNSY | < -0.25
APRLICSHVGLCVA | < -0.25
APRPTSDCTS | < -0.25
APRSRKWRTGDCVRMDKPGA | < -0.25
APSRLCNVAVFEPGAGSVST | < -0.25
APVLVILAKYCGWVRGFGSG | < -0.25
APVVSFSKYHAML | < -0.25
AQA | -0.246
AQD | < -0.25
AQGRIEAIRRKFSSQLWRTP | < -0.25
AQHN | -0.0005
AQIDCRVIVRDFYIDASVFD | < -0.25

Shown as labelled records: part of the list above
ALDTSDRFGRKESGLRKRAN
  growth estimate = < -0.25
APVLVILAKYCGWVRGFGSG
  growth estimate = < -0.25
